Source: paper PMC8408604
These are yes or no findings as the source states them, for the method shown. Binding seen in cells or lysates may run through a third protein. Some binding calls cover weakened binding; strength is not graded here. Where a sequence is shown, tags or fusion partners need not be part of it.

Target: T1, TAP-PSF-1 (PSF-1 subunit of GINS with the tandem affinity purification tag) (C. elegans) (UniProt Q22019)
T1 sequence: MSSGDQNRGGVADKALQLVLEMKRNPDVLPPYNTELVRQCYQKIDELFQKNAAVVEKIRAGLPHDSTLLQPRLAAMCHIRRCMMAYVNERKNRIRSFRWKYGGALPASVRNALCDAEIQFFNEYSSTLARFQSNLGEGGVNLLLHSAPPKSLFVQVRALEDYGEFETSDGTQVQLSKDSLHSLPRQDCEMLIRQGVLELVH
Test: co-IP; Figs 5 and EV4C: extracts of embryos of TAP-psf-1 worms (npl-4 RNAi; with or without ctf-4 or clsp-1 RNAi, tipn-1 RNAi, ctf-4∆), nuclease-digested; TAP-PSF-1 on IgG-coupled magnetic beads, released with TEV protease; immunoblot

B1: MCM-2, endogenous in C. elegans embryos (protein, UniProt Q9XXI9 1-881)
chain: MADRANNDDDVDRQPLPIADDADDDVDGIDEMFNNEDEDPEDEEGENLFGDDMERDYREQPELDQYSESGMDDASDVGSLSVSARRAAEREMAQRDQLLDDDALMYEDGDSEEVDTRRRGRGRRGRGDAADDDSVPMEEEDIPVDILENIRGRTIRDHVSDEAVAKEIERRFKNFLRSFHEPGNKQTKYIQMIKSMAADNRESLEVSFTDLSDDNGEQNISYFLPEAPNEMLAIMDRAATEVVMNMYPFYSRVCNEIKVRISQLPVEEDIRMLRQVHLNMLIRTAGVVTIASGILPQLAVVKYDCVACGYLLGPFVQQNDEEVRPTICPSCQGKGPFELNVENTVYHNYQRITMQESPNKVAAGRLPRSKDVILLGDLCDSCKPGDEIEVTGVYTNNFDGSLNYKQGFPVFNTLIHANHITNKDKMASDQLTDEDIKAIRELSQDPNISQRVFSSIAPSIYGHDDVKRAIALALFRGEAKNPGAKHRLRGDINVLLCGDPGTAKSQFLRYAAHIAPRSVLTTGQGASAVGLTAYVQRHPVTREWTLEAGAMVLADKGVCLIDEFDKMSDQDRTSIHEAMEQQSISISKAGIVTSLHARCTVIAASNPIGGRYNPTRTFAENVDLTEPILSRFDVLCVIRDSVDSVEDERLAKFVVGNHRTHHPDAKKIVKEGDELEEDQMDERTGVRLIPQDLLRKYIIYAREKCHPTLPEQHSEKFSNIFAQMRKESMATGSVAITVRHVESMIRLSEAHAKLHLRSYVNDEDCAAAIRVMLESFVNTQKASIMRMMKKTFSRHLTENRSANELLLFILKQLIRQQMHYATARAAAGTILQSVTIPESEFIEKAQQLRIENVKPFYTSEIFASNNFLYDPSKKTIVQEIF
  binding: binds
